Test results from publication PMC7289862, “Real-time tracking reveals catalytic roles for the two DNA binding sites of Rad51” (Nature Communications, 2019).
Numbering of substitutions follows the chain as printed. Construct, isoform or probe ends are uncertain for at least one entry. A weaker result is weaker than the reference pair of the same experiment. Protein sequences can lack the tags named with them.

Experiments:
[1] = target: T1, Rad51-L1 R257A (Schizosaccharomyces pombe) (UniProt P36601); assay: fluorescence anisotropy; conditions: 1 mM ATP, 3 mM MgCl2, near-complete loss, Kd N.D., 30 mM HEPES-KOH pH 7.5, 100 mM KCl, 3 mM MgCl2, 1 mM DTT, 5% glycerol, 25 C (EMSA: 2 mM ATP, 37 C, then 0.2% glutaraldehyde), recombinant protein, label: 5' TAMRA on strand 1
T1 sequence (looked up, limits assumed): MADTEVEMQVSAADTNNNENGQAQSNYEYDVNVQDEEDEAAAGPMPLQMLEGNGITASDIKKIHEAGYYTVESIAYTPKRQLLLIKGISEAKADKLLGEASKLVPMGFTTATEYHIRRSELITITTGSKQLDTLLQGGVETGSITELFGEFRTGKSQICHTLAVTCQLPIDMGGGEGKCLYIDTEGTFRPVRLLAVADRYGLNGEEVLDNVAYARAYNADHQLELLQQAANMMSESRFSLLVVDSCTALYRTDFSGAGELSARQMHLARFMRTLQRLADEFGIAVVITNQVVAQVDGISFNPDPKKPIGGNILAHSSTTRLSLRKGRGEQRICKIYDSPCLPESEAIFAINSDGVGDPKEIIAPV

[2] = target: T2, Rad51-S2 R324A,K334A (Schizosaccharomyces pombe) (UniProt P36601); assay: fluorescence anisotropy; conditions: 1 mM ATP, 3 mM MgCl2, some binding retained, Kd N.D., 30 mM HEPES-KOH pH 7.5, 100 mM KCl, 3 mM MgCl2, 1 mM DTT, 5% glycerol, 25 C (EMSA: 2 mM ATP, 37 C, then 0.2% glutaraldehyde), recombinant protein, label: 5' TAMRA on strand 1
T2 sequence (looked up, limits assumed): T1 sequence (looked up, limits assumed) with A257R, R324A, K334A

Does “AAATGAACATAAAGTAAATAAGTATAAGGATAATACAAAATAAGTAAATGAATAAACATAGAAAATAAAGTA (double strand) [[TAMRA]16A(-)_72 bp duplex]” bind [1]?
Result: binds more weakly

Does “AAATGAACATAAAGTAAATAAGTATAAGGATAATACAAAATAAGTAAATGAATAAACATAGAAAATAAAGTA (double strand) [[TAMRA]16A(-)_72 bp duplex]” bind [2]?
Result: binds more weakly
